Laboratory results as given in publication PMC10163288.
This is one part of the list.

B1: il10ra_site1_sap_20_mot_HHH_b1_03833_af2_000000159_0001_1_20_H_._6641a0bf45b743e2eabc084d195d318e_0001_0001_0000500009_0000001_0_0001_af2pred_0001 (protein)
chain: SSSSSDDRRFEKAVRLLLRAAKQQKDPETLKLTLRFAEQIAKAANDPELEELVEEVKEELSSSSS
B2: il10ra_site1_normal_mot_HHH_b1_06994_000000193_0001_40_55_H_._HHH_b2_00363_0001_0000100002_0000001_0 (protein)
chain: SSSSDLYEEVKEVIERAVELLREGNPEEAEELLEELAEKLEKLGNFAALFSVEHLARVVGSSSSS
B3: il10ra_site1_normal_mot_2c1a291787c6f40772924d4e9068d803_0001_af2_000000222_0001_34_48_H_._HHH_b1_06580_af2_0001_0000100002_0000001_0_1_af2pred_0001 (protein)
chain: SSSSDLEREALQLAAEAIALAQRRGDEETVRRLFELLIRLYREGDPRLAEELLELAEEVLSSSSS
B4: il10ra_site1_normal_mot_df72e6d168b63c4d22c4171a8daa05df_0001_000000224_0001_53_65_H_._df72e6d168b63c4d22c4171a8daa05df_0001_0001_0000100003_0000003_1 (protein)
chain: SLEELLRELLERGDEEKLRELAEEILELAKQGDPEALELILRIARLMMRDPLVRIVASALTELQY
B5: il10ra_site1_normal_mot_8756ee2cf497b5429c717dfc0c0bcfd6_0001_000000186_0001_1_13_H_._HHH_b2_04426_0001_0000300010_0000001_0_af2pred_0001 (protein)
chain: SSSSSSSYVELLRRIAEADLDRDPEEAEELLEEVKRLAEERNDLIAEVIVEFLEKEVNSSSSSSS
B6: il10ra_site1_normal_mot_HHH_b1_05021_af2_000000076_0001_42_56_H_._HHH_b2_06583_af2_0001_0000500008_0000001_0_af2pred_0001 (protein)
chain: SSSSSDRELVEEAIRILREAAKIDDKEEVEELLEEARKLAEEANNIQLELQIKFIEEMLSSSSSS
B7: il10ra_site1_sap_14_mot_HHH_b2_03117_000000257_0001_1_18_H_._HHH_b1_02472_0001_0000100003_0000002_1_0001 (protein)
chain: SSSSSEEERYVKLTLRFAEWLAENGDPRAAEHFLKAAKDIAENFNNEELKELIEEVHERISSSSS
B8: il10ra_site1_sap_17_mot_HHH_b2_00837_af2_000000287_0001_40_54_H_._HHH_b1_04774_af2_0001_0000100002_0000001_0_0001 (protein)
chain: SSSSSEIARKSVKFMLEAAKQIDDEEYVKLSLMFAEQSARAANDDELERLVEEVREELENSSSSS
B9: il10ra_site1_normal_mot_HHH_b1_06256_000000091_0001_42_58_H_._HHH_b2_07022_0001_0000100009_0000002_0 (protein)
chain: SSSDEAERSLTRFVEQALENAIRAGDEEAARRYLEIAARFLRNAGDHEAVEELEELVEELLSSSS
B10: il10ra_site1_sap_27_mot_HHH_b2_02537_000000065_0001_1_20_H_._HHH_b2_03111_af2_0001_0000200010_0000001_0_0001 (protein)
chain: SSSSSAAEELKEIIEELLRLQREGDEEEFEKLIEEAERELKEKGDQLSLRIIEYILRLFHSSSSS
B11: il10ra_site1_normal_mot_HHH_b1_02997_000000220_0001_39_52_H_._HHH_b2_03513_0001_0000200020_0000002_0_af2pred_0001 (protein)
chain: SSSSDEQRELVELIREAAELHAEGNPEEAERVAREAEELAEELNDEIARIIIEFLLEQISSSSSS
B12: il10ra_site1_sap_23_mot_HHH_b1_03094_000000294_0001_1_20_H_._HHH_b1_06981_0001_0000200012_0000001_0_0001 (protein)
chain: SSSSSQEEELVRAALRIAQQLYENGNPESAKLILEAAEMLAEEIGDEELRELVEEVKEKISSSSS
B13: il10ra_site1_normal_mot_HHH_b1_00999_000000080_0001_41_55_H_._HHH_b1_03194_0001_0000300024_0000001_0 (protein)
chain: SSSSSSDVEELLEELERLLEEGNKEEALRILQEALRHAFRNSDPELLQELWEFARRLGSSSSSSS
B14: il10ra_site1_normal_mot_HHH_b2_08186_000000021_0001_43_56_H_._HHH_b2_04824_af2_0001_0000200004_0000001_0 (protein)
chain: SSSSSDEFARIAQKAVRLAYELGDEETLQLLWELLREYIERGDPELQEELEELLEELERRSSSSS
B15: il10ra_site1_normal_mot_513c16ae44941e68898e0f7c259e5a28_0001_1_000000056_0001_35_50_H_._ems_p1-15H-GBL-16H-GABBL-16H_0041_0001_0001_0002_af2_0001_0000500010_00 … (protein)
chain: SSSSSDVEEKAEEAQELAREKGDEQAERLLKILARAYELGILSEEEAERAIELVIELLEESSSSS
B16: il10ra_site1_sap_19_mot_2b57f6184e3cbf08022d7a5dd7fdd81c_0001_af2_000000095_0001_34_50_H_._HHH_b1_03700_0001_0000300007_0000001_0_0001 (protein)
chain: STEERARIAVRALAEQAGVPEFEVEVSNNSVEVTLNGDDEAVRQAEIAIRAAAFLYRIEIHVETQ
B17: il10ra_site1_normal_mot_2c1a291787c6f40772924d4e9068d803_0001_af2_000000222_0001_34_48_H_._HHH_b1_05888_af2_0001_0000600034_0000001_0 (protein)
chain: SSSSNLEEEIFQLLIEAYLLLQRGDEEEARELLEQAKELAEELNDPALLRAVESLLAKLDSSSSS
B18: il10ra_site1_sap_29_mot_HHH_b2_01447_af2_000000258_0001_1_20_H_._HHH_b1_01009_0001_0000200017_0000001_0_0001 (protein)
chain: SSSSDELVHEFYKLSRELAEAAREGDEERVKELLEELEELAEKANSPLLKFIVRLLEEDNSSSSS
B19: il10ra_site1_sap_25_mot_HHH_b2_08186_000000021_0001_43_56_H_._HHH_b2_07188_0001_0001100123_0000001_0_0001 (protein)
chain: SSSSSSDEVEEEAEELLEELERRGNRAAVFLLRQALEALKLSGDPTAKEILESMIRIASSSSSSS

molecular target: il10ra, Q13651; assay: yeast display titration

Binder	apparent Kd
B1	inactive: no binding seen
B2	inactive: no binding seen
B3	inactive: no binding seen
B4	inactive: no binding seen
B5	inactive: no binding seen
B6	inactive: no binding seen
B7	inactive: no binding seen
B8	inactive: no binding seen
B9	inactive: > 1150 nM
B10	inactive: no binding seen
B11	inactive: no binding seen
B12	inactive: no binding seen
B13	inactive: no binding seen
B14	inactive: no binding seen
B15	inactive: no binding seen
B16	inactive: no binding seen
B17	inactive: no binding seen
B18	inactive: no binding seen
B19	inactive: no binding seen

Looked up one by one from the list above:
Binder	apparent Kd
B1	inactive: no binding seen
B16	inactive: no binding seen
